Data on 2 substances can be found in publication PMC5082755.

Sequences of proteins named here, by UniProt entry; tags and fusion partners are left off.
UniProt P78337: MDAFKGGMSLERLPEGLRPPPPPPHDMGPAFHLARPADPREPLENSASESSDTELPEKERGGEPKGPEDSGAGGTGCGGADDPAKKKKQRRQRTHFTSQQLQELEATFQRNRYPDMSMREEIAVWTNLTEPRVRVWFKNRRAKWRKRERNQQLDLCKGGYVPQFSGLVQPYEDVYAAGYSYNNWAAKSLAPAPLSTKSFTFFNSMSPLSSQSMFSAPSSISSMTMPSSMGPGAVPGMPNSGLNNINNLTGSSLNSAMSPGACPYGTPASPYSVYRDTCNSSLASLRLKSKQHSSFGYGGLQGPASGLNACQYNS

These are yes or no findings as the source states them, for the method shown. In cells and extracts the contact can be indirect. Some binding calls cover weakened binding; strength is not graded here. For some assays here: Tags and fused reporters may be left off the sequences shown.

Experiment [1] concerns the target T1, Protein tyrosine phosphatase 1B (human (endogenous in DLD1)) (UniProt P18031).
T1 sequence: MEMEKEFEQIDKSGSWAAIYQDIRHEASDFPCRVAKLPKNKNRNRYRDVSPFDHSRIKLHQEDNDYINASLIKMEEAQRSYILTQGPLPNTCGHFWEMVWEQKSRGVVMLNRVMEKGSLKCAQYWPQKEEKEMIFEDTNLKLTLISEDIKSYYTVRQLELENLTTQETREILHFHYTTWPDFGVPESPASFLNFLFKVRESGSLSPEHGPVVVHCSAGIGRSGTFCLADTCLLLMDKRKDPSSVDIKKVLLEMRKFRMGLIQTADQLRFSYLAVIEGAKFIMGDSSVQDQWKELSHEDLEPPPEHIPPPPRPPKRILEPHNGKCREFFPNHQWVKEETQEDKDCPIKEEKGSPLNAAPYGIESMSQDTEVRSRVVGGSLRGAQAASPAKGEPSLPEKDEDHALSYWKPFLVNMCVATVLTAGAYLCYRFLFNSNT
Briefly: co-IP; endogenous immunoprecipitation from DLD1 cells, western blot; which protein was precipitated is not told.

Experiment [2] concerns the target T2, Protein tyrosine phosphatase 1B, overexpressed with myc-tag (human) (UniProt P18031).
T2 sequence: T1 sequence
Description: co-IP; Hct-116 cells overexpressing PTP1B, immunoprecipitation, western blot.

Consider PITX1 (from UniProt P78337 1-314), for which the binding entry in experiment [1] is listed as “binds”.

For “PITX1 in Hct-116 cells (from UniProt P78337 1-314)”, the binding entry in experiment [2] is on record as “binds”.
